In the supplement of paper PMC10735217:
Counter-ions that a name gives are not always drawn. Some of the results follow. Repeats in this data set agree poorly, so a single value says little.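 Human kidney-derived cells stably carry a construct in which eight TEAD-binding elements drive luciferase, measured by luminescence in a drug-repurposing library screen. A hit is any compound whose signal exceeds the plate mean by more than five robust Z scores.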

System: HEK293A TEAD-LUC reporter
Experiment: TEAD-luciferase reporter activity (YAP activation), robust Z score vs plate; higher = stronger YAP/TEAD activation
Conditions: 24 h

Structure (SMILES)	TEAD-luciferase reporter activity (compound concentration: 200 nM)	TEAD-luciferase reporter activity (compound concentration: 2 uM)	TEAD-luciferase reporter activity (compound concentration: 10 uM)
O=C(O)C1(c2ccc3c(c2)OC[C@@H](Cc2ccc(-c4ccccc4)cc2)[C@@H]3O)CCCC1	inactive: 1.12	inactive: -0.399	inactive: 2.98
CC1COC2(c3ccccc3Cl)c3cc(Cl)ccc3NC(=O)CN12 (centres undefined)	inactive: -0.681	inactive: -0.938	inactive: -0.259
CN(C)/C=C1\N=C2CN=C(c3ccccc3Cl)c3cc([N+](=O)[O-])ccc3N2C1=O	inactive: -0.998	inactive: -0.859	inactive: -0.642
CN1CCN(C(=O)O[C@H]2c3nccnc3C(=O)N2c2ccc(Cl)cn2)CC1 [eszopiclone]		inactive: -0.19	
CN1CCN(C(=O)O[C@H]2c3nccnc3C(=O)N2c2ccc(Cl)cn2)CC1 [Eszopiclone]	inactive: 0.417		inactive: 3.74
CO[C@@H]1[C@@H](O)[C@H](C)O[C@@H](O[C@H]2CC[C@@]3(C)[C@H](CC[C@@H]4[C@@H]3CC[C@]3(C)[C@@H](C5=CC(=O)OC5)CC[C@]43O)C2)[C@H]1OC(C)=O	active: 17.9	inactive: -2.53	active: 7.05
CC[C@@H](c1cccc(O)c1)[C@@H](C)CN(C)C [Tapentadol]	inactive: -0.269	inactive: -1.5	inactive: 0.342
O=C(O)c1ccc2[nH]cc(CCCCN3CC=C(c4ccccc4)CC3)c2c1 [Carmoxirole hydrochloride]	inactive: -2.5	inactive: 0.464	inactive: 0.863
COc1ncnc(Cn2cc(C(=O)NCCO)c3ncc(C)cc32)c1C	inactive: -0.66		inactive: -0.107
Cc1cccc(C(C)c2c[nH]cn2)c1C (centres undefined) [dexmedetomidine (buccal), Orion]	inactive: -1.51		inactive: 1.61
Cc1cccc(C(C)c2c[nH]cn2)c1C (centres undefined) [dexmedetomidine (buccal)]		inactive: 3.09	
O=[N+]([O-])OCCCCO	inactive: -0.515	inactive: 0.274	inactive: 3.62
O=C(CCCN1CCC(n2c(=O)[nH]c3ccccc32)CC1)c1ccc(F)cc1 [Benperidol]	inactive: 0.0715	inactive: -2.43	inactive: -1.5
O=C1[O][Pt]2([OH])([OH])([NH][C@@H]3CCCC[C@H]3[NH]2)[O]C1=O	inactive: -1.4	inactive: -0.0293	inactive: 1.16
N#Cc1ccc(S[C@@H]2SC[C@@H](O)[C@H](O)[C@H]2O)cc1	inactive: -0.112	inactive: -0.315	inactive: 1.53
C#C[C@]1(O)CCC2C3CCC4=C[C@@H](O)CC[C@]4(C)C3CC[C@@]21C (some centres undefined)	inactive: 0.191	inactive: -0.58	inactive: 1.42
CN[C@H]1C[C@@H](N)[C@H](O)[C@@H](O[C@@H]2O[C@H](CO)[C@H](O)[C@@H]3OC4(O[C@H]23)O[C@H]([C@@H](N)CO)[C@H](O)[C@H](O)[C@H]4O)[C@@H]1O (some centres undefined) [Hygromycin B]	inactive: 0.112	inactive: -0.625	inactive: -0.423
CNC1C2C=CCC1c1ccccc1C2 (centres undefined)	inactive: -1.17	inactive: -1.83	inactive: -0.942
CCCCCCN1CC=C(c2ccc(Cl)cc2)CC1	inactive: -0.326	inactive: -0.594	inactive: 2.46
CN1CC[C@]23c4c5ccc(O)c4O[C@H]2C(=O)CC[C@H]3[C@H]1C5 [Hydromorphone hydrochloride]	inactive: 2		inactive: 0.489
O=C(C1CCCN1C(=O)c1ccc(C(F)(F)F)cc1)N1CCC(N2CCOC2=O)CC1 (centres undefined)	inactive: 1.99		inactive: 0.541
C[C@]12CCC(=O)C=C1C=C[C@@H]1[C@@H]2CC[C@@]2(C)[C@H]1CC[C@@]2(O)CCC(=O)O [Canrenoate potassium]	inactive: 0.466		inactive: 1.4
Oc1ccc2c(c1)CC[N+]1=C2CCC2CCCC21 (centres undefined)	inactive: -1.37	inactive: -1.56	inactive: 2.62
CC12CCC(=O)C=C1CC[C@@H]1[C@@H]2CCC2(C)[C@@H](OC(=O)CCC3CCCC3)CC[C@@H]12 (some centres undefined) [Testosterone cypionate]	inactive: -0.421	inactive: -0.378	inactive: 1.28
CCCCCCCCCCCC(=O)[O][Sn]([CH2]CCC)([CH2]CCC)[O]C(=O)CCCCCCCCCCC [Dibutyltin Dilaurate]	inactive: -0.561	inactive: 0.0962	inactive: 3.98
CCNC(=O)[C@@H](CC(C)C)NC(=O)[C@H](CCCNC(=N)N)N(C)C(=O)[C@H](CCCNC(=N)N)NC(=O)[C@H](CC(C)C)NC(=O)[C@H](Cc1ccccc1)NC(=O)CNC(=O)CNC(=O)[C@H](Cc1ccc(O)cc1)NC	inactive: -0.729	inactive: -0.475	inactive: 1.65
CCN(CCCC(=O)C1CCCCC1)[C@@H](C)Cc1ccc(OC)cc1	inactive: 2.3	inactive: 1.09	inactive: 1.01
CN1CC[C@@]2(C)c3cc(OC(=O)N4CCc5ccccc5C4)ccc3N(C)[C@@H]12	inactive: -2.24	inactive: 0.21	inactive: 0.153

Two records picked at random from the list so far:
Structure (SMILES)	TEAD-luciferase reporter activity (compound concentration: 200 nM)	TEAD-luciferase reporter activity (compound concentration: 2 uM)	TEAD-luciferase reporter activity (compound concentration: 10 uM)
CC1COC2(c3ccccc3Cl)c3cc(Cl)ccc3NC(=O)CN12 (centres undefined)	inactive: -0.681	inactive: -0.938	inactive: -0.259
O=[N+]([O-])OCCCCO	inactive: -0.515	inactive: 0.274	inactive: 3.62
